# In the supplement of paper PMC10849652:
# The chains behind the UniProt entries cited, without tags or fusion partners. Where a name states a change or a piece, a line headed by the entry shows the natural chain unless it says otherwise.
# UniProt P63104: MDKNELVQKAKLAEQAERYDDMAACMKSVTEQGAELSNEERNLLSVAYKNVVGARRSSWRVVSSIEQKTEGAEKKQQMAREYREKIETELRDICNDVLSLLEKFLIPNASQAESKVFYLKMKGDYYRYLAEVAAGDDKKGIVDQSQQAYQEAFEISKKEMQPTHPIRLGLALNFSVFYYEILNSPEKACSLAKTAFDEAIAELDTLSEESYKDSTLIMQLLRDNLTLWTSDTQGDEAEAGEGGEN
# UniProt P27348: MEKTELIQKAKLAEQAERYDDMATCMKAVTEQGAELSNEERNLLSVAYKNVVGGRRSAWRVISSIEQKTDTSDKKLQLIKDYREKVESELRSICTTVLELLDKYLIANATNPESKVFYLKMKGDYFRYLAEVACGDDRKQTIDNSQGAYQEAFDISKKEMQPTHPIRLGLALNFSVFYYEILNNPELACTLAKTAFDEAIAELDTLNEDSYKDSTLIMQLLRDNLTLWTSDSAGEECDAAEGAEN
# UniProt P61981: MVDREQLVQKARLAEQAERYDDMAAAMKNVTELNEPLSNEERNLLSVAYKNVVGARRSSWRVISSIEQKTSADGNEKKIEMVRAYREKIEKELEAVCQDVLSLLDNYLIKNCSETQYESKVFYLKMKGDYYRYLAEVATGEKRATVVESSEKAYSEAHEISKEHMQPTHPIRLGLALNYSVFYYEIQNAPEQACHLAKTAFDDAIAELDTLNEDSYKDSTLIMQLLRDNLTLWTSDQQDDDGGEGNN
# UniProt P13010: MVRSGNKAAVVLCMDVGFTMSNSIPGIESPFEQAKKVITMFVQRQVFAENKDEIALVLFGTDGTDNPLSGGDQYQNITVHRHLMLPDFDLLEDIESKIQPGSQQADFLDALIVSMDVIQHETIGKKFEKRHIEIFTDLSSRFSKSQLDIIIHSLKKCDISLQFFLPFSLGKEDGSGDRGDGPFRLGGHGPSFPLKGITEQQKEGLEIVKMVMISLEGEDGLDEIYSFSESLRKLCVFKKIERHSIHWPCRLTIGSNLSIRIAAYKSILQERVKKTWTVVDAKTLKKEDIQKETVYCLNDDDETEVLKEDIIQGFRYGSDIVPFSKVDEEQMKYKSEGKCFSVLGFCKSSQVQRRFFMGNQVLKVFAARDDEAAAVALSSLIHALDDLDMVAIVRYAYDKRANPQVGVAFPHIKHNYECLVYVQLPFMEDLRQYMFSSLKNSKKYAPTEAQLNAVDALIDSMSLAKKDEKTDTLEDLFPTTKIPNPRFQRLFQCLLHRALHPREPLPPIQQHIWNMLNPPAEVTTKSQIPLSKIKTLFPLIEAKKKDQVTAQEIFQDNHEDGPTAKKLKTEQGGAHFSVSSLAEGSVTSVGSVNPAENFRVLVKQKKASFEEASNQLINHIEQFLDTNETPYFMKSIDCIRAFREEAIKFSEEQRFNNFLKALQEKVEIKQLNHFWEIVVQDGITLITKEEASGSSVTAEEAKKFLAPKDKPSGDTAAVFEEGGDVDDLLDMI
# UniProt Q8IWT0: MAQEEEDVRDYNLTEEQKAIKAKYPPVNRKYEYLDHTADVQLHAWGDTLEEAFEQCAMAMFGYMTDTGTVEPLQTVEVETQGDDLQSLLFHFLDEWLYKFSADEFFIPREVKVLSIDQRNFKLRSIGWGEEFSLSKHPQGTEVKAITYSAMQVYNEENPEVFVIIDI
# UniProt Q9Y5A9: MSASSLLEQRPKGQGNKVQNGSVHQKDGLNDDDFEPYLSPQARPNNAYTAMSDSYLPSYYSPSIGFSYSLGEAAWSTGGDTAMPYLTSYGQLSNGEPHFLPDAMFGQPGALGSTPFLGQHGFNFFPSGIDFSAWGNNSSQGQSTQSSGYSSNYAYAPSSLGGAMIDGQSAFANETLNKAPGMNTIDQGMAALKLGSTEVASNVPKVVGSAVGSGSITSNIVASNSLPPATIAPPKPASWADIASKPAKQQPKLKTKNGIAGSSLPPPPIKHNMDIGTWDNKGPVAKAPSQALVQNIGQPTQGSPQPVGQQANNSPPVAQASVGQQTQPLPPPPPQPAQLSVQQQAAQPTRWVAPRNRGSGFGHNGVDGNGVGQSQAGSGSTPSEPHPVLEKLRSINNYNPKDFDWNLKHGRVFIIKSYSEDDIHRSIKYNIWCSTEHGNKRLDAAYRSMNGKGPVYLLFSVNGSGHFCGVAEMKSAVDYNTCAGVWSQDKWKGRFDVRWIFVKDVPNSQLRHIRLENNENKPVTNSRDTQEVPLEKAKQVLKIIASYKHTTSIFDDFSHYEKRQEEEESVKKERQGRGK
# UniProt Q9C0E2: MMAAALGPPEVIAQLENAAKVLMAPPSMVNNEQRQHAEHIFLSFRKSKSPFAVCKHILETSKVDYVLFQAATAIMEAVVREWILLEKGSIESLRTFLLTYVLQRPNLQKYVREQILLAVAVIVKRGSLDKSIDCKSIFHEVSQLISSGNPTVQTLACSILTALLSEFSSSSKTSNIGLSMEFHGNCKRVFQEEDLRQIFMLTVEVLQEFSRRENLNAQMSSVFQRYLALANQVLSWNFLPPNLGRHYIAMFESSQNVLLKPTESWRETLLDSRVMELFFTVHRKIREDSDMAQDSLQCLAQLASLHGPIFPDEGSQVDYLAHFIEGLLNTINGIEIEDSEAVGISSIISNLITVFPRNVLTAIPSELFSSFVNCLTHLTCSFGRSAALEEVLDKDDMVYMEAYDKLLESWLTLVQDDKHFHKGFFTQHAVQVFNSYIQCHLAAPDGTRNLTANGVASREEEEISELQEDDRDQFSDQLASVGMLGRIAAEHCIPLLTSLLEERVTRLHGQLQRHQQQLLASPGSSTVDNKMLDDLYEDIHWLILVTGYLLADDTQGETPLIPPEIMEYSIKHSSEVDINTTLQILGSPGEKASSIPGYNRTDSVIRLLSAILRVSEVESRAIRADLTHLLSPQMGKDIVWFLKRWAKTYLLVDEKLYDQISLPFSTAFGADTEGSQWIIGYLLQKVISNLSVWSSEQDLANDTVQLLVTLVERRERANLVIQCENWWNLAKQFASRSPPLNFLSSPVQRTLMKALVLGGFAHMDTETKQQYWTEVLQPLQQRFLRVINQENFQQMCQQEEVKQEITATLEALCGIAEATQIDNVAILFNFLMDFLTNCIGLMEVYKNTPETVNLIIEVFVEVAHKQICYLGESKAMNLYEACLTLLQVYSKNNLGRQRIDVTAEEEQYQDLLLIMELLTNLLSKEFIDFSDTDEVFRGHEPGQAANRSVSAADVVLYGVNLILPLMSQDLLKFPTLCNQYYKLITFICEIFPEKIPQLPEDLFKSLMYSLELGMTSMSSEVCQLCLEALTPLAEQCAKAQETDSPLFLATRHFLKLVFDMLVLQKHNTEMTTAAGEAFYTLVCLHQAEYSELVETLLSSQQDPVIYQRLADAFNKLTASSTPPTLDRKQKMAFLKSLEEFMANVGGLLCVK
# UniProt Q8NBI6: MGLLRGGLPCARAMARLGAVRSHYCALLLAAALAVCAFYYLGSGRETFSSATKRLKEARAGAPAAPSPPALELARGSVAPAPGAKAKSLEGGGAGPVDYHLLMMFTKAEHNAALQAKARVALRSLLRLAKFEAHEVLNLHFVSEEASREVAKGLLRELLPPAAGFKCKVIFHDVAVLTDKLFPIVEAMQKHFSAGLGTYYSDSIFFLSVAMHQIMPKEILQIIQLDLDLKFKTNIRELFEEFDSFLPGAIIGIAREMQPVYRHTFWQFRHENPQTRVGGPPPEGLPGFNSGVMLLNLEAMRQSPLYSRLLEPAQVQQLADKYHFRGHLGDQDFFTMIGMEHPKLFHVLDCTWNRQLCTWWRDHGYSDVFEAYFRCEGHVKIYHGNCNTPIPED
# UniProt Q8N4Q0: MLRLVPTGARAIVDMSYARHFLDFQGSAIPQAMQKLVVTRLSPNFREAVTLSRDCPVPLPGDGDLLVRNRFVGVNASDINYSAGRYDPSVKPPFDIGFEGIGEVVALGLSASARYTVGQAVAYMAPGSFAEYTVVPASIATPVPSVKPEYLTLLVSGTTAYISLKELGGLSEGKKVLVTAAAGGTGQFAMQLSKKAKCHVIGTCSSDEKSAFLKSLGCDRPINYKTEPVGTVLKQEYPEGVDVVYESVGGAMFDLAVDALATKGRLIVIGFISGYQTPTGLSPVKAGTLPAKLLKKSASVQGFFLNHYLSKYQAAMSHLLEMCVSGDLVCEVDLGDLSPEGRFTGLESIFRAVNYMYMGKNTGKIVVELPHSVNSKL
# UniProt Q86WB0: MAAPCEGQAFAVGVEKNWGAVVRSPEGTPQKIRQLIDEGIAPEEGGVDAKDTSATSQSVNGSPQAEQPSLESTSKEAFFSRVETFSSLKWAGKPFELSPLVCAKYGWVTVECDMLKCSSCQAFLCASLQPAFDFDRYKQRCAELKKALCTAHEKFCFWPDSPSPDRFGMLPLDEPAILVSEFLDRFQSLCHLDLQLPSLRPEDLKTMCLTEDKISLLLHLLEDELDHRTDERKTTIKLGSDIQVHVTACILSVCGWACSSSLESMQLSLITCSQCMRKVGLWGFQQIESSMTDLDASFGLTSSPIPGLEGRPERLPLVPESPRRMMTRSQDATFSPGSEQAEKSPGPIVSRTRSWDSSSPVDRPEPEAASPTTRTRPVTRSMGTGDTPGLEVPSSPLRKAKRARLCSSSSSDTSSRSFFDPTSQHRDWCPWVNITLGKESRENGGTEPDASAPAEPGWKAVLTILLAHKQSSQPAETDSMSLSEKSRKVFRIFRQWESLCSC
# UniProt P67809, whole entry, looked up: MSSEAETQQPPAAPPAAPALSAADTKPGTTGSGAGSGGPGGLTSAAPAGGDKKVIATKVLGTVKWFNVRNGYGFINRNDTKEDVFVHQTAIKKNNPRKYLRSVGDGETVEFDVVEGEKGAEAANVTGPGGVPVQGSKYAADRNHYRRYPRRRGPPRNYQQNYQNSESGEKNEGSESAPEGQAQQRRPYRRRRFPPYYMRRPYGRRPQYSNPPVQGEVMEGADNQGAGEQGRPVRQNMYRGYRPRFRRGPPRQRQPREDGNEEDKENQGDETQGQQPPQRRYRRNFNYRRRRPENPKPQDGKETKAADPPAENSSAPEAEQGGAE
# UniProt Q6PJT7: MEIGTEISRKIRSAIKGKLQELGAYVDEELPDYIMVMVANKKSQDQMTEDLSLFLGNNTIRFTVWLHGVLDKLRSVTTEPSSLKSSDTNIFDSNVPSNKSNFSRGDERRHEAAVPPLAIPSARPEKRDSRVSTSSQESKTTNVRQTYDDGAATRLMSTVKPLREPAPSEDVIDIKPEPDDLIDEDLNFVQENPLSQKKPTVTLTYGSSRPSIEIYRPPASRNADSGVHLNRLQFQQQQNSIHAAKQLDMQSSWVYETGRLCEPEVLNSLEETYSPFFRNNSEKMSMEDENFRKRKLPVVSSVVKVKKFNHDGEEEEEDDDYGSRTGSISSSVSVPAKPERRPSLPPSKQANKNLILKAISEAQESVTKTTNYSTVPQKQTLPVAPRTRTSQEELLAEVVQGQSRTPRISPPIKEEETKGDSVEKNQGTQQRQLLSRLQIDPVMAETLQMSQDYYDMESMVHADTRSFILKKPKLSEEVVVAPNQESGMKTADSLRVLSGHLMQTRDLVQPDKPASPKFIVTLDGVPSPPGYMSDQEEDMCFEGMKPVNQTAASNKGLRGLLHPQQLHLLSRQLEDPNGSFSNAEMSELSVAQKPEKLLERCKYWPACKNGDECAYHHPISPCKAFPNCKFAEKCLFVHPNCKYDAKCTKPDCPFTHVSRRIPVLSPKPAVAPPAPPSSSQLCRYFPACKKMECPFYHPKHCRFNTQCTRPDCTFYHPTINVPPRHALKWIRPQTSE
# UniProt O76080: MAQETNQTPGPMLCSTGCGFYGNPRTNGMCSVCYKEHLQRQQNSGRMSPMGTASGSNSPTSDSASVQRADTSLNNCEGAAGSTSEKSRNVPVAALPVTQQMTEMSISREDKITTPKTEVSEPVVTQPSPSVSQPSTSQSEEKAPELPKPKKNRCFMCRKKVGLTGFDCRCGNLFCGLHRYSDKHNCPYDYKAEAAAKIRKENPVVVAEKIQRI
# UniProt P31946: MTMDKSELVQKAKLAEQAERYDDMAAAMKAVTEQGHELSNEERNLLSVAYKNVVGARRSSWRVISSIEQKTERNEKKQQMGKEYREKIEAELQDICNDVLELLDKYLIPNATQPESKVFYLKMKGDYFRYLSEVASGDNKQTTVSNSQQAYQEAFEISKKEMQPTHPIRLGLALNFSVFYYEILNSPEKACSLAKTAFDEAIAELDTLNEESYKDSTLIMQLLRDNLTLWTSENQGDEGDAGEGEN
# UniProt Q9NUE0: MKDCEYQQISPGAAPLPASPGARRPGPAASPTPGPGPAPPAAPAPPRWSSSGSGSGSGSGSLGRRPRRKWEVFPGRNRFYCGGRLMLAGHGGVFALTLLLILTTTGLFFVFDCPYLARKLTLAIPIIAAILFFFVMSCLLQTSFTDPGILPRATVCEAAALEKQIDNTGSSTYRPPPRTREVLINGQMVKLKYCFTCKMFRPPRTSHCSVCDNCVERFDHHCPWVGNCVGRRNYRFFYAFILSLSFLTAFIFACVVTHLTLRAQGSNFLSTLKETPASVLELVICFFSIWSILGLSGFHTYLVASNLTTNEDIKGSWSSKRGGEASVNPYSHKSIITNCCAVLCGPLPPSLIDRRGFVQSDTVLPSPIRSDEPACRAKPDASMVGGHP
# Some of the results follow.
# Legend:
# Assay in all cases: log2 fold change, soluble protein after heating vs DMSO (PISA); higher = thermal stabilisation; K562 lysate, 10 uM; active = over 0.2 and 3.5 SD of the protein, either way, in both replicates (recomputed)
# [1] = compound: Cc1cn(-c2cc(NC(=O)c3ccc(C)c(Nc4nccc(-c5cccnc5)n4)c3)cc(C(F)(F)F)c2)cn1 [nilotinib]
# Procedure, shortened: (§1)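 Soluble protein was defined as the supernatant remaining after 21,000xg for 90 min, following pooling of heated aliquots and adjustment to 0.5% NP-40 at 4°C. Before that, crude K562 extract at 1 mg/mL protein in PBS pH 7.4 with 1 mM MgCl2 was treated with 10 μM compound for 30 min and heated for 3 min across 48°C-58°C. Quantification used TMTpro 16plex LC-MS/MS with channel sums equalised, and values are log-two fold changes in thermal stability relative to solvent controls from duplicates.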
# [2] = compound: Cc1nc(Nc2n[nH]c3c2CN(C(=O)N[C@H](CN(C)C)c2ccccc2)C3(C)C)c2sccc2n1
# Procedure, shortened: as §1
# [3] = compound: Cc1nc(Nc2ncc(C(=O)Nc3c(C)cccc3Cl)s2)cc(N2CCN(CCO)CC2)n1 [dasatinib]
# Procedure, shortened: as §1
# [4] = compound: Cc1ncc(-c2ccnc(Nc3ccc(S(C)(=O)=O)cc3)n2)n1C(C)C
# Procedure, shortened: as §1
# [5] = compound: Cn1cc(-c2ccc3c(c2)CCN3C(=O)Cc2cccc(C(F)(F)F)c2)c2c(N)ncnc21
# Procedure, shortened: as §1
# [6] = compound: Cn1cc(CNCC2CCN(c3ncc(C(=O)NO)cn3)CC2)c2ccccc21 [quisinostat]
# Procedure, shortened: as §1
# [7] = compound: Cn1cncc1[C@@](N)(c1ccc(Cl)cc1)c1ccc2c(c1)c(-c1cccc(Cl)c1)cc(=O)n2C [tipifarnib]
# Procedure, shortened: as §1
# [8] = compound: NC(=O)Nc1cc(-c2cccc(F)c2)sc1C(=O)N[C@H]1CCCNC1
# Procedure, shortened: as §1
# [9] = compound: NC(=O)c1cnc(N[C@@H]2CCCC[C@@H]2N)nc1Nc1cccc(-n2nccn2)c1
# Procedure, shortened: as §1
# [10] = compound: NC1(c2ccc(-c3nc4ccn5c(=O)[nH]nc5c4cc3-c3ccccc3)cc2)CCC1
# Procedure, shortened: as §1
# [11] = compound: NCC(=O)Nc1ccc(-n2nc(C(F)(F)F)cc2-c2ccc3c(ccc4ccccc43)c2)cc1
# Procedure, shortened: as §1
# [12] = compound: O=C(CCCCCCC(=O)Nc1ccccc1)NO [vorinostat]
# Procedure, shortened: as §1
# [13] = compound: O=C(O)c1ccc2c(c1)nc(Nc1cccc(Cl)c1)c1ccncc12 [silmitasertib]
# Procedure, shortened: as §1
# [14] = compound: O=C1NC(=O)C(c2cnc3ccccn23)=C1c1cn2c3c(cc(F)cc13)CN(C(=O)N1CCCCC1)CC2
# Procedure, shortened: as §1
# [15] = compound: c1cn2cc(-c3ccc4cn[nH]c4c3)nc(Nc3ccc(N4CCOCC4)cc3)c2n1 [entospletinib]
# Procedure, shortened: as §1
Target,log2 fold change [1],log2 fold change [2],log2 fold change [3],log2 fold change [4],log2 fold change [5],log2 fold change [6],log2 fold change [7],log2 fold change [8],log2 fold change [9],log2 fold change [10],log2 fold change [11],log2 fold change [12],log2 fold change [13],log2 fold change [14],log2 fold change [15]
YWHAZ (UniProt P63104),inactive: 0.01,inactive: -0.004,inactive: 0.053,inactive: 0.029,inactive: -0.012,inactive: 0.031,inactive: 0.003,inactive: -0.038,inactive: -0.03,inactive: 0.02,inactive: -0.005,inactive: 0.116,inactive: -0.012,inactive: -0.005,inactive: 0.001
YTHDF1 (UniProt Q9BYJ9),inactive: -0.218,inactive: 0.083,inactive: -0.073,inactive: 0,inactive: -0.068,inactive: -0.225,inactive: -0.136,inactive: 0.246,inactive: 0.008,inactive: 0.001,inactive: 0.104,inactive: -0.164,inactive: 0.044,inactive: 0.086,inactive: -0.057
YWHAQ (UniProt P27348),inactive: -0.008,inactive: -0.005,inactive: 0.04,inactive: 0.037,inactive: 0.011,inactive: 0.095,inactive: 0.019,inactive: -0.023,inactive: -0.035,inactive: 0.014,inactive: -0.047,inactive: -0.052,inactive: -0.012,inactive: 0.013,inactive: 0.022
YWHAG (UniProt P61981),inactive: 0.046,inactive: -0.008,inactive: 0.051,inactive: 0.083,inactive: -0.009,inactive: 0.109,inactive: 0.013,inactive: -0.036,inactive: -0.009,inactive: -0.001,inactive: -0.057,inactive: 0.144,inactive: -0.014,inactive: 0.028,inactive: -0.001
XRCC5 (UniProt P13010),inactive: 0.02,inactive: -0.021,inactive: -0.032,inactive: -0.016,inactive: 0.022,inactive: 0.004,inactive: -0.002,inactive: 0.024,inactive: -0.005,inactive: -0.006,inactive: 0.017,inactive: -0.093,inactive: 0.025,inactive: 0.018,inactive: 0.021
ZBTB8OS (UniProt Q8IWT0),inactive: -0.035,inactive: 0.011,inactive: -0.013,inactive: -0.018,inactive: 0.029,inactive: 0.123,inactive: 0.003,inactive: 0.016,inactive: -0.001,inactive: -0.023,inactive: 0.007,inactive: 0.082,inactive: 0.036,inactive: 0.055,inactive: 0.002
YTHDF2 (UniProt Q9Y5A9),inactive: -0.181,inactive: 0.008,inactive: 0,inactive: 0.025,inactive: 0.003,inactive: 0.035,inactive: -0.303,inactive: 0.075,inactive: 0.017,inactive: 0.002,inactive: 0.05,inactive: -0.024,inactive: -0.036,inactive: -0.16,inactive: -0.022
ZFYVE9 (UniProt O95405),inactive: 0.037,inactive: 0.035,inactive: 0.013,inactive: -0.047,inactive: 0.073,inactive: -0.003,inactive: -0.035,inactive: 0.018,inactive: 0.087,inactive: -0.018,inactive: 0.072,inactive: -0.186,inactive: 0.004,inactive: 0.062,inactive: -0.011
ZBTB40 (UniProt Q9NUA8),inactive: -0.076,inactive: 0.29,inactive: -0.024,inactive: 0.086,inactive: -0.051,inactive: -0.01,inactive: 0.078,inactive: -0.018,inactive: 0.004,inactive: 0.058,inactive: 0.073,inactive: -0.118,inactive: 0.024,inactive: 0.036,
XPO4 (UniProt Q9C0E2),inactive: -0.028,inactive: 0.031,inactive: -0.053,inactive: 0.013,inactive: 0.012,inactive: -0.056,inactive: 0.01,inactive: 0.04,inactive: 0.005,inactive: 0.01,inactive: -0.023,inactive: -0.124,inactive: 0.012,inactive: -0.011,inactive: 0.013
ZFYVE28 (UniProt Q9HCC9),inactive: 0.102,inactive: 0.004,inactive: 0.038,inactive: 0.063,inactive: -0.046,inactive: -0.004,inactive: -0.018,inactive: 0.036,inactive: -0.018,inactive: 0.027,inactive: 0.091,inactive: 0.148,inactive: -0.03,inactive: 0,inactive: -0.067
XXYLT1 (UniProt Q8NBI6),inactive: 0.018,inactive: 0.002,inactive: -0.044,inactive: 0.007,inactive: 0.067,inactive: -0.019,inactive: -0.084,inactive: 0.034,inactive: 0.004,inactive: -0.026,inactive: 0.034,inactive: 0.166,inactive: -0.012,inactive: 0.029,inactive: -0.007
ZADH2 (UniProt Q8N4Q0),inactive: 0.15,inactive: -0.066,inactive: -0.092,inactive: -0.047,inactive: -0.057,inactive: 0.096,inactive: 0.152,inactive: -0.076,inactive: 0.15,inactive: 0.09,inactive: -0.053,inactive: 0.169,inactive: 0.037,inactive: 0.079,
XRCC4 (UniProt Q13426),inactive: -0.005,inactive: -0.043,inactive: 0.049,inactive: -0.008,inactive: 0.019,inactive: 0.132,inactive: -0.013,inactive: 0.002,inactive: -0.029,inactive: -0.055,inactive: 0.035,inactive: 0.125,inactive: 0.023,inactive: 0.06,inactive: -0.037
ZC3HC1 (UniProt Q86WB0),inactive: -0.013,inactive: -0.005,inactive: 0.029,inactive: 0.007,inactive: -0.009,inactive: -0.033,inactive: -0.03,inactive: 0.025,inactive: 0.017,inactive: 0.024,inactive: 0.021,active: -0.368,inactive: -0.034,inactive: -0.03,inactive: 0.01
YBX1 (UniProt P67809),inactive: -0.035,inactive: 0.027,inactive: 0.036,inactive: 0.02,inactive: -0.033,inactive: -0.041,inactive: -0.014,inactive: 0.012,inactive: -0.025,inactive: 0.006,inactive: 0.017,inactive: 0.158,inactive: -0.029,inactive: 0.006,inactive: 0.005
ZC3H14 (UniProt Q6PJT7),inactive: -0.064,inactive: -0.042,inactive: -0.054,inactive: 0.01,inactive: -0.049,inactive: -0.028,inactive: -0.051,inactive: 0.001,inactive: -0.009,inactive: 0.002,inactive: 0.009,inactive: -0.088,inactive: 0.028,inactive: 0.028,inactive: -0.028
YARS (UniProt P54577),inactive: -0.002,inactive: 0.009,inactive: -0.03,inactive: 0.005,inactive: 0.008,inactive: -0.027,inactive: 0.004,inactive: 0.018,inactive: 0.007,inactive: 0.011,inactive: 0.009,inactive: -0.08,inactive: 0.006,inactive: 0,inactive: 0.018
ZFAND5 (UniProt O76080),inactive: 0.029,inactive: 0.016,inactive: 0.002,inactive: 0.116,inactive: 0.01,inactive: 0.104,inactive: -0.038,inactive: -0.191,inactive: 0.065,inactive: 0.175,inactive: 0.103,inactive: 0.233,inactive: 0.161,inactive: -0.039,
YWHAB (UniProt P31946),inactive: -0.003,inactive: -0.006,inactive: 0.069,inactive: -0.003,inactive: 0.025,inactive: -0.002,inactive: 0.046,inactive: 0,inactive: -0.012,inactive: 0.02,inactive: 0.066,inactive: 0.103,inactive: -0.027,inactive: -0.009,inactive: 0.016
ZDHHC18 (UniProt Q9NUE0),inactive: 0.067,inactive: -0.329,inactive: 0.176,inactive: -0.047,inactive: -0.158,inactive: -0.008,inactive: 0.177,inactive: 0.008,inactive: 0.059,inactive: 0.067,inactive: -0.064,inactive: -0.162,inactive: 0.163,inactive: 0.009,inactive: 0.034

# Nothing new here: an excerpt of the list.
Target,log2 fold change [1],log2 fold change [2],log2 fold change [3],log2 fold change [4],log2 fold change [5],log2 fold change [6],log2 fold change [7],log2 fold change [8],log2 fold change [9],log2 fold change [10],log2 fold change [11],log2 fold change [12],log2 fold change [13],log2 fold change [14],log2 fold change [15]
YWHAQ (UniProt P27348),inactive: -0.008,inactive: -0.005,inactive: 0.04,inactive: 0.037,inactive: 0.011,inactive: 0.095,inactive: 0.019,inactive: -0.023,inactive: -0.035,inactive: 0.014,inactive: -0.047,inactive: -0.052,inactive: -0.012,inactive: 0.013,inactive: 0.022
YWHAG (UniProt P61981),inactive: 0.046,inactive: -0.008,inactive: 0.051,inactive: 0.083,inactive: -0.009,inactive: 0.109,inactive: 0.013,inactive: -0.036,inactive: -0.009,inactive: -0.001,inactive: -0.057,inactive: 0.144,inactive: -0.014,inactive: 0.028,inactive: -0.001
